# Experimental data reported in PubChem BioAssay AID1671190 (National Center for Advancing Translational Sciences (NCATS), 2021).
# Amino acid sequences for entries named in this document (tags omitted). A change or cut given only in a name is not applied to a line headed by its entry.
# UniProt P18054: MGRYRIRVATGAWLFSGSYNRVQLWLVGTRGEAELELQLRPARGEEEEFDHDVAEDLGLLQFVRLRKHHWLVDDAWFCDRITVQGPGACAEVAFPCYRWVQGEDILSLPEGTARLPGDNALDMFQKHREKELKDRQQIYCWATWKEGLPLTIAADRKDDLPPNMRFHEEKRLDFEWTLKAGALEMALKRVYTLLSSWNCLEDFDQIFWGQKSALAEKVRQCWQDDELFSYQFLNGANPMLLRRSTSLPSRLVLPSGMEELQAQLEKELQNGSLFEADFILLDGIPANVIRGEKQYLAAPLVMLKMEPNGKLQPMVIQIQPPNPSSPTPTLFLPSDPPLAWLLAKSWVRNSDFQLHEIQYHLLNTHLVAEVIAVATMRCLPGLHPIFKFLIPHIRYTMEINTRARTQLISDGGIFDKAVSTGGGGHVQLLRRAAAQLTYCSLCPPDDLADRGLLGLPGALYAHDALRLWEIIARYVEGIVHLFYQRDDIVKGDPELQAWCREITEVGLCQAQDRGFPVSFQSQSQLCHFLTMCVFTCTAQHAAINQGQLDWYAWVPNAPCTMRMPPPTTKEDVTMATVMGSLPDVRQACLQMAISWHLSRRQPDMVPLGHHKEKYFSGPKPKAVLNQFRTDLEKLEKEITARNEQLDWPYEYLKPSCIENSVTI
# Where “and” joins values, the source holds several entries; their conditions need not be identical. Equal values may be shown once. Among all 580,000 compounds or so, about 6,100 (1.1%) were called active. The shares of active, inactive and inconclusive entries below differ from those in the screen. Calls follow the shape of the dose curve; as a rule, active = well fitted inhibition curve with a large enough effect; inconclusive = small, poorly fitted or top-dose-only effect, or another doubt; inactive = no such curve, though single readings can be large or run the other way. A potency beside an inconclusive call is a rough fit, not a confirmed value.
# Biological target: Polyunsaturated fatty acid lipoxygenase ALOX12 (Homo sapiens) (UniProt P18054)
# Assay: Primary qHTS assay for inhibitors of human arachidonate 12S-lipoxygenase (ALOX12): Round 2
# Details: purified 12hLO, xylenol orange hydroperoxide absorbance; activity change, negative = inhibition: at 108 µM (top of the series) unless noted
# How it was run: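 Purified human 12hLO at 150 nM in 25 mM Hepes, 0.01% Triton X-100, pH 7.0, preincubated 15 min at room temperature with compound. Reaction started with 40 uM arachidonic acid, 30 min at room temperature. Hydroperoxide measured by Fe-xylenol orange, 573/405 nm absorbance ratio.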
# % is scaled to controls: 0 for no effect and ±100 for the full control effect; potency is read from the fitted curve at half-maximal effect.
Compound,"activity change, negative = inhibition",Potency
Cc1nn2c(=O)cc(COC(=O)c3ccc(NC(=O)C4CCCCC4)cc3)nc2s1,inconclusive: -31% [inhibitor],
O=C(NCCCn1ccnc1)c1ccc(-c2cccc(C(F)(F)F)c2)o1,,"inconclusive: 100 µM [inhibitor, single point]"
CC(=O)Nc1ccc(NC(=O)COC(=O)c2ccc(S(=O)(=O)NCc3ccco3)cc2)cc1,,"inconclusive: 50.1 µM [inhibitor, partial curve, poor fit]"
CCCCCCC1CCC(=O)O1 (stereo not given),,inactive
O=C(NCc1ccc(S(=O)(=O)NC2CCCCC2)s1)c1ccccc1,,inactive
Cc1ccc2cc(CCNC(=O)c3cccc([N+](=O)[O-])c3)c(=O)[nH]c2c1C,,inactive
Cc1ccc(Cl)cc1NC(=O)Nc1cccs1,,inactive
Cc1cc(=O)n(CC(=O)NC(C)CCc2ccccc2)c(N2CCOCC2)n1 (stereo not given),,inactive
COc1cccc(C2=NOC(C(=O)Nc3ccccc3SC)C2)c1 (stereo not given),,inactive
CN1C(=O)C(Cc2cnc[nH]2)NC1=S (stereo not given),,"inconclusive: 2.24 µM [inhibitor, full curve, poor fit]"
Cc1ccc(CNS(=O)(=O)c2ccc3c(c2)n(C)c(=O)n3C)cc1,,inactive
COCCNC(=O)c1ccccc1-c1ccccc1C(=O)O,,"inconclusive: 0.631 µM [inhibitor, full curve, poor fit]"
CC(C)Cc1nnc(NC(=O)c2ccncc2)s1,,"inconclusive: 39.8 µM [inhibitor, partial curve, poor fit]"
CCCN(CCC)C(=O)c1cc([N+](=O)[O-])cc2c1-c1ccc([N+](=O)[O-])cc1C2=C(C#N)C#N,,inactive
Cc1cc(SCC(=O)c2ccccc2)n2nc(C)nc2n1,,"inconclusive: 8.91 µM [inhibitor, partial curve, poor fit]"
CCCOCC(O)CCc1n[nH]c(=S)n1-c1ccccc1 (stereo not given),,"inconclusive: 44.7 µM [inhibitor, partial curve]"
CC(C)(C)c1ccc(OCCCn2ccnc2)cc1,,inactive
Fc1ccccc1-c1nc(N2CCCCC2)c2ccccc2n1,,"inconclusive: 4.47 µM [inhibitor, full curve, poor fit]"
Cc1ccc(NC(=O)C(NS(=O)(=O)c2ccc3c(c2)CCC(=O)N3)c2ccccc2)cc1C (stereo not given),,"inconclusive: 56.2 µM [inhibitor, partial curve, poor fit]"
CCOC(=O)C1CCN(CCC(=O)Nc2ccc(Br)c(C)c2)CC1,,"inconclusive: 56.2 µM [inhibitor, partial curve, poor fit]"
COC(=O)C1=C(C)N(Cc2ccccc2)C(=S)N[C@H]1c1cccc(F)c1,,"inconclusive: 50.1 µM [inhibitor, partial curve, poor fit]"
CC(=O)Nc1sc(NC(=O)c2ccco2)nc1-c1cccs1,inconclusive: -33.3% [inhibitor],

# By substructure: those above with an NH in an aromatic ring (three)
Compound,"activity change, negative = inhibition",Potency
Cc1ccc2cc(CCNC(=O)c3cccc([N+](=O)[O-])c3)c(=O)[nH]c2c1C,,inactive
CN1C(=O)C(Cc2cnc[nH]2)NC1=S (stereo not given),,"inconclusive: 2.24 µM [inhibitor, full curve, poor fit]"
CCCOCC(O)CCc1n[nH]c(=S)n1-c1ccccc1 (stereo not given),,"inconclusive: 44.7 µM [inhibitor, partial curve]"

# Later entries

Compound,"activity change, negative = inhibition",Potency
CC(C)n1cc(/C(N)=N/O)c(=O)n(Cc2ccccc2)c1=O,,"inconclusive: 112 µM [inhibitor, single point]"
Cc1c(NC(=O)CSc2cccc3cccnc23)c(=O)n(-c2ccccc2)n1C,,"inconclusive: 70.8 µM [inhibitor, partial curve, poor fit]"
Cc1ccc(-c2cnc(CCC(=O)N3CC(C(=O)N(C)C)Oc4ccccc43)o2)cc1C (stereo not given),,"inconclusive: 50.1 µM [inhibitor, partial curve, poor fit]"
Cc1cc(C)n(-c2nnc(C)n2NS(=O)(=O)c2ccc(F)cc2)n1,,inactive
CSCC[C@H](NC(=O)Nc1cccc(Br)c1)C(=O)O,,"inconclusive: 28.2 µM [inhibitor, single point]"
Cc1cc(C(=O)OCC(=O)NCC(C)C)c2ccccc2n1,,inactive
Cc1cccc(C(=O)N/N=C/c2ccc(N(C)C)cc2)c1,,"inconclusive: 35.5 µM [inhibitor, partial curve]"
COc1cc(C(C#N)N2CCCCC2)ccc1O (stereo not given),,"inconclusive: 0.282 µM [inhibitor, full curve, poor fit]"
CCCc1c(C)nc2c(C)cccc2c1SCC(=O)O,,inactive
CCCC(=O)OCCNc1cc(Sc2nccn2C)c2nonc2c1[N+](=O)[O-],,"inconclusive: 50.1 µM [inhibitor, partial curve, poor fit]"
Cc1ccc2occ(CN3CCN(c4ccccc4)CC3)c(=O)c2c1,,"inconclusive: 44.7 µM [inhibitor, partial curve, poor fit]"
Cc1nn(-c2ccccc2)c(C)c1/C=N/n1c(-c2ccc(Cl)cc2)n[nH]c1=S,,"inconclusive: 50.1 µM [inhibitor, partial curve, poor fit]"
COc1ccc(Cl)cc1C(=O)NNC(=S)NC(=O)c1cc(-c2ccc(Cl)cc2)nc2ccccc12,,active: 50.1 µM
COc1ccc2[nH]c(CN3CCC(CO)(CCOc4ccccc4)CC3)c(C)c2c1,,"inconclusive: 50.1 µM [inhibitor, partial curve, poor fit]"
CCOc1ccc(NS(=O)(=O)c2ccc3[nH]c4c(c3c2)CCCC4)cc1,,"inconclusive: 79.4 µM [inhibitor, partial curve, poor fit]"
CN(Cc1nc(-c2cccnc2)no1)C(=O)CC1COCCN1 (stereo not given),,"inconclusive: 28.2 µM [inhibitor, single point]"
Cc1nc(Cc2nn3c(-c4ccccc4)nnc3s2)cs1,inconclusive: -37.9% [inhibitor],
COCCN(CCOC)C(=O)c1sc2nc(-c3ccccc3)cn2c1C,,"inconclusive: 112 µM [inhibitor, single point]"
O=C1N[C@@H](c2ccccc2)COC(=O)[C@H](Cc2ccc(F)cc2)CC/C=C/C[C@H]1CC(=O)N(CCO)Cc1ccccc1,,"inconclusive: 89.1 µM [inhibitor, partial curve, poor fit]"
O=C1NC[C@@H](CCCCN2C[C@H](Cc3ccc(O)cc3)N(CCc3ccc(O)cc3)C(=O)C2=O)N(Cc2ccccc2)C1=O,,"inconclusive: 100 µM [inhibitor, single point]"
CCN(CC)C(=O)CSc1nc(-c2cccs2)cc(-c2cccs2)c1C#N,,"inconclusive: 17.8 µM [inhibitor, partial curve]"
COC(=O)c1cccc(Nc2ncnc3sccc23)c1,,inactive

Compound,"activity change, negative = inhibition",Potency
CCOC(=O)c1ccc2c(c1)n(CCO)c(C)[n+]2CC,,"inconclusive: 15.8 µM [inhibitor, partial curve, poor fit]"
CCN(CC)CCN1C(=O)C(=O)/C(=C(/O)c2ccc(OC(C)C)cc2)C1c1cccs1 (stereo not given),,"inconclusive: 50.1 µM [inhibitor, single point]"
Fc1ccc(-c2ccc3nccn3c2)cc1Cl,,"inconclusive: 89.1 µM [inhibitor, partial curve, poor fit]"
COc1ccc2nc(N(Cc3cccnc3)C(=O)c3ccc4c(c3)OCCO4)sc2c1,,"inconclusive: 11.2 µM [inhibitor, partial curve, poor fit]"
S=C(NCCCN1CCOCC1)NC1CC1,,inactive
O=C(CSc1n[nH]c(-c2ccccc2)n1)Nc1ncc(Br)cc1Br,,"inconclusive: 50.1 µM [inhibitor, partial curve, poor fit]"
O=C(NCCNC(=O)Nc1ccc(Cl)cc1)Nc1ccc(Cl)cc1,,active: 12.6 µM
Cc1ccc(-n2c(N)c(C(=O)Nc3ccccc3F)sc2=S)cc1C,,"inconclusive: 50.1 µM [inhibitor, partial curve, poor fit]"
CCCNC(=O)CSc1nc2ccccc2nc1C,,inactive
CCC(=O)Nc1nc2c(s1)COc1ccccc1-2,,"inconclusive: 39.8 µM [inhibitor, partial curve, poor fit]"
Cc1cc(C(=O)N/N=C/c2cc(Br)cc([N+](=O)[O-])c2O)c2ccccc2n1,,"inconclusive: 35.5 µM [inhibitor, partial curve]"
Cc1cc(O)c(C(=O)/C=C/c2c(F)c(F)c(F)c(F)c2F)c(=O)o1,,"inconclusive: 50.1 µM [inhibitor, partial curve, poor fit]"
O=[N+]([O-])c1cc(-c2ccccc2)cc([N+](=O)[O-])c1O,,"inconclusive: 79.4 µM [inhibitor, partial curve, poor fit]"
COC(=O)C1=C(c2ccccc2)c2ccccc2S(=O)(=O)N1CC(=O)Nc1ccc(F)c(F)c1,,"inconclusive: 35.5 µM [inhibitor, partial curve] and inconclusive: 56.2 µM [inhibitor, partial curve, poor fit]"
COc1ccc(NC(=O)c2ccccc2NC(=O)CSc2ccc(C)cc2)cc1,,"inconclusive: 4.47 µM [inhibitor, full curve, poor fit]"
O=C1CC(c2ccco2)CC(O)=C1C=Nc1cc(Cl)ccc1Cl (stereo not given),,"inconclusive: 56.2 µM [inhibitor, partial curve, poor fit]"
CC(C)c1ccc(/C=C(\NC(=O)c2ccccc2)C(=O)NCCCN2CCOCC2)cc1,,"inconclusive: 100 µM [inhibitor, single point]"
O=S(=O)(NCc1ccc2c(c1)OCO2)c1cccc(S(=O)(=O)N2CCOCC2)c1,,"inconclusive: 44.7 µM [inhibitor, partial curve, poor fit]"
Fc1ccc(Cn2cccc2C2=NC(c3ccccc3)CO2)cc1 (stereo not given),,inactive
Cc1cccc(OCC(=O)N2CCC(NC(=O)c3ccccc3)CC2)c1,,"inconclusive: 89.1 µM [inhibitor, single point]"
CC(=O)Oc1ccc(-c2csc(Nc3cccnc3)n2)cc1,,"inconclusive: 39.8 µM [inhibitor, single point]"

# Individual results from the list.
# O=[N+]([O-])c1cc(-c2ccccc2)cc([N+](=O)[O-])c1O – Potency: inconclusive: 79.4 µM [inhibitor, partial curve, poor fit]
# COc1ccc2nc(N(Cc3cccnc3)C(=O)c3ccc4c(c3)OCCO4)sc2c1 – Potency: inconclusive: 11.2 µM [inhibitor, partial curve, poor fit]
